Results are given in words; binding and its absence hold for the method and conditions named. Some binding calls cover weakened binding; strength is not graded here.
What was measured:
[1] = biological target: MUC1 peptide Thr-Ser-Ala-Pro-Asp-Thr-Arg-Pro-Ala-Pro-Gly-Ser-Thr ("the crystal peptide"); assay: X-ray crystal structure, legend of Figure 4
[2] = biological target: MUC1 peptide Thr-Ser-Ala-Pro-Asp-Thr-Arg-Pro-Ala-Pro-Gly-Ser-Thr ("the crystal peptide"); assay: X-ray crystal structure, legend of Figure 5
[3] = biological target: MUC1 peptide Thr-Ser-Ala-Pro-Asp-Thr-Arg-Pro-Ala-Pro-Gly-Ser-Thr ("the crystal peptide"); assay: X-ray crystal structure, legend of Figure 15
[4] = biological target: MUC1 peptide Thr-Ser-Ala-Pro-Asp-Thr-Arg-Pro-Ala-Pro-Gly-Ser-Thr ("the crystal peptide"); assay: X-ray crystal structure of the Fab-peptide complex

Measured: binding

B1: SM3 Fab fragment (obtained by papain digestion of SM3) (Fab, V domains shown)
VH: QVQLQESGGGLVQPGGSMKLSCVASGFTFSNYWMNWVRQSPEKGLEWVAEIRLKSNNYATHYAESVKGRFTISRDDSKSSVYLQMNNLRAEDTGIYYCTGVGQFAYWGQGTTVTVS
VL: DIVVTQESALTTSPGETVTLTCRSSTGAVTTSNYANWVQEKPDHLFTGLIGGTNNRAPGVPARFSGSLIGDKAALTITGAQTEDEAIYFCALWYSNHWVFGGGTKLTVLG
binds: all assays above

Reference: WO1999010379A1
